The target of test [1] is X-ray repair cross complementing 6 (XRCC6) (human (endogenous in HCT116 and SW480)) (UniProt P12956). As to the kind of experiment: co-IP; endogenous proteins; HCT116 and SW480 lysates (IP lysis buffer), incubated at 4 °C with IgG or the antibody against the bait, then beads; immunoblot.
Test [2] concerns the target Tripartite motif containing 21 (TRIM21) (human (endogenous in HCT116 and SW480)) (UniProt P19474). Described as above.
Test [3] concerns the target CCR4-NOT transcription complex subunit 7 (CNOT7) (human (endogenous in HCT116 and SW480)) (UniProt Q9UIV1). The test is described as above.
The target of test [4] is Tripartite motif containing 21 (TRIM21) (human (endogenous in HCT116 and SW480)) (UniProt P19474). As to the kind of experiment: co-IP; XRCC6-WT against XRCC6 K526R with TRIM21 (Fig. S5E, F); method, cells and bait not told in the text shown.

Protein sequences, listed by entry. Tags and fused reporters are not part of them. Lines headed by an entry give the natural chain unless they say otherwise; changes in a name come on top.
UniProt P12956: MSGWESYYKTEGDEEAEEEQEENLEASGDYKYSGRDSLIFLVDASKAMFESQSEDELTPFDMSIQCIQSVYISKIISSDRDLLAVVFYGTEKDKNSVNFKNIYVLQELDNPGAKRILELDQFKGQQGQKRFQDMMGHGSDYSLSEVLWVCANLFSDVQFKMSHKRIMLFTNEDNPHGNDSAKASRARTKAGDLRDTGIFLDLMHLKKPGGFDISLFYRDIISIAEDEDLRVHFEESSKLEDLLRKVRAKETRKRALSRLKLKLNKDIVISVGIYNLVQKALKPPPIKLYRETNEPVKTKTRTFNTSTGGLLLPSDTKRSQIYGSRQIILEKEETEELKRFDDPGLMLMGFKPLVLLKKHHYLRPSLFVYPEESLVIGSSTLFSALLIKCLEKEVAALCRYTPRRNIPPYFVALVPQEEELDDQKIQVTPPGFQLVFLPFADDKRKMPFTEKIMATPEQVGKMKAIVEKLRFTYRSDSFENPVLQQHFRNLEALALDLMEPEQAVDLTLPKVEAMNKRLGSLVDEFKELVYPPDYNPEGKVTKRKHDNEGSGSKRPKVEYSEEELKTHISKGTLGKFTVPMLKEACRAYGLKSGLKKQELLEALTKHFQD
UniProt P19474: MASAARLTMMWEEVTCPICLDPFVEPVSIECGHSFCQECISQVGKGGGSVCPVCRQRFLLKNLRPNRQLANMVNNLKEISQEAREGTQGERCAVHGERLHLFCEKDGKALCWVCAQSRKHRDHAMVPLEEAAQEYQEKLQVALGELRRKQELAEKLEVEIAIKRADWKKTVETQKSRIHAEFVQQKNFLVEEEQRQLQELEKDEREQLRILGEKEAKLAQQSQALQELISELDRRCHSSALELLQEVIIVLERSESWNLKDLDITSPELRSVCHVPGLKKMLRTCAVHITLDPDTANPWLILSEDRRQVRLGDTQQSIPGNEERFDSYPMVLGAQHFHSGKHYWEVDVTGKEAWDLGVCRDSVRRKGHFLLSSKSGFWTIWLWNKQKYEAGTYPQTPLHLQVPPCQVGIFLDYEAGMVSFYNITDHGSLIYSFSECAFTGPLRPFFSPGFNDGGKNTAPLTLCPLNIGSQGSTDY
UniProt Q9UIV1: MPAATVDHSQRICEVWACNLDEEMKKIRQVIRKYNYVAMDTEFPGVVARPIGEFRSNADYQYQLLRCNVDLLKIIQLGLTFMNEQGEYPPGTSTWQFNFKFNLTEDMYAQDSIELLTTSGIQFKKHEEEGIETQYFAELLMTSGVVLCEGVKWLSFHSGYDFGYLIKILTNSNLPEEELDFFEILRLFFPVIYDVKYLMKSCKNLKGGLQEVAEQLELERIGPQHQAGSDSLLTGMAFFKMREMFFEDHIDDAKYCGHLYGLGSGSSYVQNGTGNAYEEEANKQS

These are yes or no findings as the source states them, for the method shown. Binding seen in cells or lysates may run through a third protein. Some results given as binding are weak or reduced against the parent protein; the word gives no strength.

As for “CCR4-NOT transcription complex subunit 7 (CNOT7) (from UniProt Q9UIV1 1-285)”, the binding result in test [1] was “binds”.

Consider “X-ray repair cross complementing 6 (XRCC6) (from UniProt P12956 1-609)”, for which the binding result in test [2] and in test [3] was “binds” each time. As for “XRCC6 K526R mutant (from UniProt P12956 1-609)”, in test [4], the binding result is reported as “binds”. In the case of “XRCC6-WT (overexpressed) (from UniProt P12956 1-609)”, in test [4], the binding result is given as “binds”.
